# Source: PubChem BioAssay AID504784 (Drosophila RNAi Screening Center, 2011)
# Assay: 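Search for regulators of lipid droplet storage in oleate-fed fly cells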 (primary screen)
# Cells: Drosophila Kc167 embryonic cells
# Reagent: long dsRNA against Drosophila genes, about 250 ng dsRNA per well
# Time to read-out: 4 days
# Conditions: cells fed 400 µM oleic acid bound to BSA
# Measurement: 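Cells imaged and segmented; ratio of lipid droplet area to nuclear area, log-transformed, then normalised as a B-score over the screen; higher means more stored lipid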
# Reading the numbers: droplet/nuclear area B-score: higher = more stored lipid (overstorage)
# The screen tested about 17,000 reagents; shown is an unselected part of those that have a named target and a result. 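Each column is one replicate's B-score; the combined score over replicates was not deposited, so single values may mislead.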 The numbers tell different reagents against one gene apart. Names joined by + are all predicted targets of the reagent.
Target gene,reagent no.,"droplet/nuclear area B-score, replicate 1","droplet/nuclear area B-score, replicate 2","droplet/nuclear area B-score, replicate 3"
CG12499,1,0.015,0.326,
CG5568,1,0.12,-0.239,1.11
CG5568,2,0.672,0.407,
CG11912,1,0.655,-0.141,
Mlh1,1,-0.157,-0.285,
CG4768,1,0.195,-1.2,-1.71
CG13901,1,0.874,-0.553,
Gbp1,1,0.364,0.0802,
fend,1,1.08,0.0252,
fend,2,0.959,-0.429,-0.000839
Ass + CG31286,1,-0.251,-0.281,
CG5986,1,-1.39,-2.56,
AIMP1,1,1.43,-1.78,
Drsl3,1,0.212,-0.967,
Cyp6a19,1,-0.00516,-1.15,
ATPsynG,1,2.46,2.52,0.118
Hex-t1,1,-0.288,-1.33,
CG13339,1,0.417,-1.85,
CG32284,1,0.561,0.698,
Hmu,1,1.04,0.635,
CG32413,1,-0.42,0.31,
CG12581,1,-1.37,0.382,-0.844
CG12581,2,0.0489,0.228,
CG5850,1,0.0824,-0.718,
epsilonTry,1,-1.64,-1.97,
CR31427,1,-0.0663,1.38,
CG13306,1,0.441,-1.07,
fd59A,1,0.000754,0.0195,
NfI,1,-1.23,0.292,
DIP-iota,1,-1.54,1.77,
bwa,1,-0.0471,-0.664,
bwa,2,-0.38,0.0155,
CG31673,1,-0.0722,-0.511,
Aduk,1,0.0627,-0.173,
Cyp4d21,1,-0.204,0.824,
hui,1,1.53,0.194,
spoon,1,1.81,1.05,1.1
tim,1,-0.0353,1.81,

Reprinted from the entries so far for reference:
Target gene,reagent no.,"droplet/nuclear area B-score, replicate 1","droplet/nuclear area B-score, replicate 2","droplet/nuclear area B-score, replicate 3"
CG12581,1,-1.37,0.382,-0.844
CG12581,2,0.0489,0.228,
CG5850,1,0.0824,-0.718,
epsilonTry,1,-1.64,-1.97,
CR31427,1,-0.0663,1.38,
CG13306,1,0.441,-1.07,
fd59A,1,0.000754,0.0195,
NfI,1,-1.23,0.292,

Additional entries:
Target gene,reagent no.,"droplet/nuclear area B-score, replicate 1","droplet/nuclear area B-score, replicate 2","droplet/nuclear area B-score, replicate 3"
Pfdn5,1,-0.0318,0.38,
adp,1,-0.473,,
AIMP2,1,-0.384,0.0276,2.66
CG31007,1,1.64,1.77,
PIG-X,1,-0.534,0.0119,
CG13243,1,-1.21,0.951,
Vha68-2,1,-0.374,0.0904,
slx1,1,-0.8,-1.33,
CG10283,1,0.165,0.962,
CG4593,1,-0.982,-0.191,
CG30062,1,0.804,0.123,
CG34436,1,-1.34,2.13,
Polr3K + Tcs1,1,2.17,0.0079,
Snp,1,-1.3,-0.7,
Snp,2,-0.683,-1.07,
dare,1,0.764,0.855,
Obp57c + Obp57b,1,-1.12,-0.454,
Syp,1,1.79,0.491,
Syp,2,0.933,-0.821,
CG11779 + CG5835,1,-1.75,-0.127,
CG17134,1,1.43,-1.48,
FER,1,-2.25,0.279,
FER,2,-0.014,0.973,
MICU1,1,-0.929,0.184,
cher,1,0.115,-0.755,
pyr,1,-1.06,1.99,-0.765
pyr,2,1.12,-0.888,
Mct1,1,-0.187,-0.0179,
CG31709,1,-0.385,-0.105,
beat-IIa,1,-0.36,0.236,
beat-IIa,2,1.02,0.122,
CG12490,1,1.12,1.27,
CG5404,1,-0.0743,-0.338,-0.09
arg,1,-0.299,,
CG14561,1,-1.98,-2.48,
Hs2st,1,0.0318,-0.799,
Gp150,1,4.22,-0.638,-0.00255
CG4630,1,1.36,-0.0978,
nub,1,0.017,-0.286,
nub,2,4.31,3.05,
nub,3,-1.73,-0.27,
nub,4,0.698,1.72,
U3-55K,1,1.5,-0.471,
P5CS,1,-0.615,-0.193,-0.0572
P5CS,2,-1.48,-1.56,
CG14990,1,0.757,-0.135,
wdn,1,-1.82,,
CG15628,1,0.979,-0.593,
CG15628,2,0.623,-0.21,
Ir62a,1,0.178,-1.23,
CG33223,1,-1.3,1.82,
CG9624,1,-0.651,-0.302,
trus,1,-0.00634,1.32,
Eh,1,-1.1,-1.06,
CG13733,1,0.339,-0.658,
TH1,1,-0.00895,1.7,-1.67
CG10834,1,-0.522,-0.195,
CG5882,1,1.22,1.48,
CG6220,1,-0.115,0.695,
CG6428,1,-0.434,-0.643,
CG4960,1,0.0834,2.65,
ais,1,0.67,-0.65,-0.315
GatA,1,-0.394,5.15,
CG11885,1,-2.09,0.264,
BaraA1 + BaraA2,1,1.53,0.815,
Prx3,1,-0.647,-0.156,
Hacl,1,2.26,3.26,
